# Primary screen of a compound library

Sequences of proteins named here, by UniProt entry; tags and fusion partners are left off.
UniProt E9BF75, entry or part of it: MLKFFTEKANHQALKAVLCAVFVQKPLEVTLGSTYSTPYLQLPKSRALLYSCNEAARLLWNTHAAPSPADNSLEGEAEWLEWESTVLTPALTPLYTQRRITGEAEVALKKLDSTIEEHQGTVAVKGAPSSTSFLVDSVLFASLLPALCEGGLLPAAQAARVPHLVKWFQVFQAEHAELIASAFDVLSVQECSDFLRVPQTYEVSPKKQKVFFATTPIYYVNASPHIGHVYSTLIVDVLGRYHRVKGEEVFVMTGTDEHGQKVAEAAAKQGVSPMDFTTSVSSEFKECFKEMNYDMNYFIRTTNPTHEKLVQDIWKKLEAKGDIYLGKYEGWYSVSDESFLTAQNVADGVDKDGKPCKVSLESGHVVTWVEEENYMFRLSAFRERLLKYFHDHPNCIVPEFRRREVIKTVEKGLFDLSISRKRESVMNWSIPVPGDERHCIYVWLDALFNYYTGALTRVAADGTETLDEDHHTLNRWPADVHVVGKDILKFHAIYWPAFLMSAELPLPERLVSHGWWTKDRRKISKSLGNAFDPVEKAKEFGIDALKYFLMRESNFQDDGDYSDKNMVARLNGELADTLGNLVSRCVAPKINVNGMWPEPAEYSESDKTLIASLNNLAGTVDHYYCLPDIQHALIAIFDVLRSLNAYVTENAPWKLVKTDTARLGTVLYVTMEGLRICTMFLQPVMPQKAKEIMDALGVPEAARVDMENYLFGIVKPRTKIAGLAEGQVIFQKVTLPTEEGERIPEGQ

The values are deposited in ChEMBL (CHEMBL3988442, “University of Dundee, Small-Polar-MMV Screening Library” (2021)).

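Methionyl-tRNA synthetase (putative), Leishmania donovani (UniProt E9BF75). Primary screen of methionyl-tRNA synthetase; the read-out is not stated. The test concentration is not given. Values are per cent inhibition. Size under these conditions: about 68,000 compounds, about 24 of them at 50% or above in at least one test.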

All values are in %. The controls that fix the scale are not given in the record; negative values are as filed. This is an unselected part of the compounds tested.

structure,Inhibition
COc1ccc2cc(C(=O)N3CCCCC3CC(N)=O)[nH]c2c1 (centres unmarked),12.55
O=C(NC1CCCC1)N1C[C@H]2CN(c3ccncc3)C[C@@]2(C(=O)O)C1,-0.3021
CC(=O)c1cnc(N(C)Cc2cnc3ccccc3n2)nc1C,5.516
CCNC(=O)[C@@H]1C[C@H](NC(=O)c2cc(=O)[nH]c3ccc(C)cc23)CN1C,12.79
c1cnn(CC2CCCN2Cc2cn3ccsc3n2)c1 (centres unmarked),6.733
COCCN(C(=O)c1ccn(-c2ccc(OC)cc2)n1)C(C)C(N)=O (centres unmarked),7.859
Cc1ccccc1SC1CCN(C(=O)[C@@H]2C[C@@H](N)CN2)CC1,13.87
Cc1ccc(-c2cn3c(n2)CO[C@@H](CNCc2nccn2C)C3)cc1,11.86
CC1(C)CN(CC(F)(F)F)CCN1CC(=O)NC1CC1,17.18
Cc1cc(C2CCC2)nc(N2CCC3(CC2)OCCCC3O)n1 (centres unmarked),9.278
CC(C)(C(=O)NCCS(N)(=O)=O)c1cccc(Br)c1,8.424
CS(=O)(=O)N1CCCC(Cc2ccnc3ccncc23)CC1 (centres unmarked),22.4
COCCN(Cc1coc(-c2cccc(Cl)c2)n1)C1CC1,8.397
CS(=O)(=O)N1C[C@H]2CNC[C@@]2(C(=O)NCCCc2ccccc2)C1,16.53
CCOc1cccc(C(=O)N2CCC(c3n[nH]c(C4CC4)n3)CC2)c1,16.33
Oc1ccc(N(CCc2ccccc2)CCn2cncn2)cc1,69.97
CCn1ncc2c1CCCC2NCc1ccc2c(c1)OCCO2 (centres unmarked),15.47
CSCc1cccc(NC(=O)N2CCC(N3CC=CC3)C2)c1 (centres unmarked),7.311
CC(C)c1nccc(-c2nccn2CCS(C)(=O)=O)n1,14.48
Oc1cc(-c2ccccn2)nc(C2CCN(Cc3ccncc3)CC2)n1,7.979
Cc1cc(C)n(C2CCN(S(C)(=O)=O)CC2)n1,1.587
C[C@@H]1CN(C(=O)CCCN2CCOCC2)C[C@@]1(O)C1CC1,10.05
CO[C@H]1CN(C(=O)c2nc(-c3ccccc3)[nH]c2C)CC[C@H]1N,5.483
O=C(c1ccc(-n2cnnn2)cc1)N1CCCC(n2ccnc2)C1 (centres unmarked),15.56
NCCc1cccc(CN2CCN(c3ccccc3)C(=O)C2)c1,2.046
CCN1CCCC(NC(=O)c2ccc(C)[nH]c2=O)C1 (centres unmarked),17.14
COc1ccc(CNc2c(N3CCN(C)CC3)c(=O)c2=O)cc1,15.01
OC(CN1CCN(Cc2nnc(C3CC3)o2)CC1)c1ccccc1 (centres unmarked),6.103
CC(C)(CN1CCCC1)CN1CCC(Cn2cc(C3CC3)nn2)CC1,6.03
C1CCC(c2nnc3sc(C4CCOC4)nn23)C1 (centres unmarked),8.094
Cc1nc(C(C)C)sc1C(=O)N1CCN(C2CCSCC2)CC1,6.542
CCn1cc(CN2CCC(CNC(C)=O)CC2)cc1C#N,9.524
CC(=O)c1cc(CN2C[C@H]3CC[C@@H]2CN(S(C)(=O)=O)C3)cs1,10.12
CN(Cc1cccs1)C(=O)CN1CCCCC1Cn1cncn1 (centres unmarked),14.91
COCCc1noc(CNC2CCCC(C)(C)C2)n1 (centres unmarked),11.76
CS(=O)(=O)N1CCC(c2nnc3ccc(C(=O)NC4CCC4)cn23)C1 (centres unmarked),6.875
O=C(NCc1ccccn1)[C@@]12CCO[C@@H]1CCN(Cc1ccccn1)C2,16.54
COc1ccc(Nc2ccc(C#N)cn2)cc1N1CCCC1=O,5.013
Cc1ccc(CN2CC[C@H]3[C@H](CC(Cn4cccn4)N3C)C2)s1 (some centres unmarked),1.104
CN1CC(=O)N(c2cnn(C)c2)CC12CCN(CC1CC1)C2 (centres unmarked),9.375
Cc1nc(C2CCCN2C(=O)CN(C)Cc2ccccc2)no1 (centres unmarked),9.028
CC(C)(CNC(=O)C1CCCN(C(N)=O)C1)c1cccc(Cl)c1 (centres unmarked),3.958
COc1nccc(N2CCN(Cc3ccc(C)cc3)C(=O)C2)c1C#N,5.512
CCCc1cc(NC2CCc3nc(CC)nn3C2)n2ncnc2n1 (centres unmarked),10.18
O=S(=O)(c1cccnc1)N1CCN(CC(O)c2cccs2)CC1 (centres unmarked),13.67
Cc1n[nH]c(C)c1CC(=O)N1CC[C@@](C)(O)[C@H](Oc2ccccc2)C1,15.94
CC(C)(NCC(=O)NCCC#N)c1ccc2c(c1)OCCO2,8.497
c1cnn(Cc2cn3c(n2)CN(Cc2nccs2)CC3)c1,18.63
CCc1nc(CN2CCCN(C(=O)c3cnc(C)cn3)CC2)cs1,20
c1csc(CN2CCCn3nnc(COCC4CC4)c3C2)n1,19.23
CS(=O)(=O)N1CCC2(CC1)NCCn1c(-c3ccccc3)cnc12,6.159
CCC[C@H]1CN(Cc2ccc(N(C)C)nc2)C[C@@H]1NC(=O)CO,12.2
COCC(C)(O)CNC(=O)Nc1cccc(OC)c1OC (centres unmarked),6.475
Cn1ncnc1NCc1ccccc1Cl,14.86
Cc1nc(N2CCCC2)nc2c1CCN(C(=O)N(C)C)CC2,20.46
COC(=O)Cn1c(=O)nc2n1C(=O)N(c1ccc(Br)cc1)C2,16.82
N[C@@H]1c2ccccc2C2(CCN(C(=O)c3ccccc3O)CC2)[C@H]1O,5.744
CCCS(=O)(=O)N1CCN(CC(F)(F)F)CC1,8.075
Cc1cccc(CN2CCOC(C)(C(=O)N3CCOCC3)C2)n1 (centres unmarked),-0.565
COCCN(Cc1cnn(C)c1)CC1CCN(C(C)C)CC1,8.964
CCS(=O)(=O)N1CCC(c2cc3n(n2)[C@@H](C(F)(F)F)C[C@@H](C)N3)CC1,11.3
CC(C)NC(=O)CS(=O)(=O)Cc1coc(-c2ccc(F)cc2)n1,4.569
CCOCC1CN(Cc2cnn(C)c2)Cc2ncn(C)c21 (centres unmarked),5.882
COc1ccccc1N1CCN(C(=O)CSC(C)C)C(C)C1 (centres unmarked),15.08
N#Cc1ccc(C(=O)O)nc1/C=C/c1cccc(Br)c1,3.876
Cc1ccc2c(c1)C1(CCN(S(C)(=O)=O)CC1)CN2C(=O)N(C)C,10.65
CC(C)(C)C(=O)N1C[C@@H](F)[C@@H](OCc2nc3ccccc3o2)C1,13.9
COc1c(CNCc2cccc(Cn3ccnc3)c2)c(C)nn1C,12.42
COC[C@H]1CCC[C@]12CN(Cc1cccc(C)n1)CCO2,7.781
CCN(CC)CCN(CC(C)C)c1cc(C(F)(F)F)nc2ncnn12,12.54
COC1CCN(C(=O)Cc2csc(-c3ncccn3)n2)CC1,15.31
c1ccc(-n2cc(CN3CCCCC3Cn3cncn3)nn2)cc1 (centres unmarked),19.77
Cc1cnn(CC2CCCN2C(=O)c2cc(O)nc3ccccc23)c1 (centres unmarked),18.78
Cc1ccc(NC(=O)N2CC(C(=O)NC(C)C)C3(CCOCC3)C2)cc1 (centres unmarked),2
CC(c1nc(C2CC2)no1)N1CCN(Cc2ccc(C#N)cc2)CC1 (centres unmarked),5.222
Cc1cnn(CC2CCCN2C(=O)Cc2c(C)noc2C)c1 (centres unmarked),5.96
CC(C)Cc1noc(CN2CCC(NC(=O)c3cccs3)CC2)n1,5.512
Cc1cc(C)c2c(NCCC3(O)CCCC3)ncnc2n1,8.696
COCC(=O)N1CCN(C)CC(Cc2cc(N(C)C)ncn2)C1 (centres unmarked),16.83
Cc1cc(NC(=O)NCCc2ccccc2)n(C)n1,14.61
CN1CCC(c2nnc3ccc(C(=O)NC4CCCC4)cn23)C1 (centres unmarked),-0.625

The first 10 entries again:

- COc1ccc2cc(C(=O)N3CCCCC3CC(N)=O)[nH]c2c1 (centres unmarked) : 12.55%
- O=C(NC1CCCC1)N1C[C@H]2CN(c3ccncc3)C[C@@]2(C(=O)O)C1 : -0.3021%
- CC(=O)c1cnc(N(C)Cc2cnc3ccccc3n2)nc1C : 5.516%
- CCNC(=O)[C@@H]1C[C@H](NC(=O)c2cc(=O)[nH]c3ccc(C)cc23)CN1C : 12.79%
- c1cnn(CC2CCCN2Cc2cn3ccsc3n2)c1 (centres unmarked) : 6.733%
- COCCN(C(=O)c1ccn(-c2ccc(OC)cc2)n1)C(C)C(N)=O (centres unmarked) : 7.859%
- Cc1ccccc1SC1CCN(C(=O)[C@@H]2C[C@@H](N)CN2)CC1 : 13.87%
- Cc1ccc(-c2cn3c(n2)CO[C@@H](CNCc2nccn2C)C3)cc1 : 11.86%
- CC1(C)CN(CC(F)(F)F)CCN1CC(=O)NC1CC1 : 17.18%
- Cc1cc(C2CCC2)nc(N2CCC3(CC2)OCCCC3O)n1 (centres unmarked) : 9.278%